Test results from publication PMC8009681.
These are yes or no findings as the source states them, for the method shown. Binding seen in cells or lysates may run through a third protein. Binding calls can cover weak binding; strength is not graded here. For some assays here: Tags and fused reporters may be left off the sequences shown.

Assays:
[1] = target: T1, phyA-GFP (Arabidopsis thaliana) (UniProt P14712); assay: co-IP; HEK293T cells, medium with 20 μM PCB; total soluble protein, αGFP magnetic beads, blots with αGFP and αmyc
T1 sequence: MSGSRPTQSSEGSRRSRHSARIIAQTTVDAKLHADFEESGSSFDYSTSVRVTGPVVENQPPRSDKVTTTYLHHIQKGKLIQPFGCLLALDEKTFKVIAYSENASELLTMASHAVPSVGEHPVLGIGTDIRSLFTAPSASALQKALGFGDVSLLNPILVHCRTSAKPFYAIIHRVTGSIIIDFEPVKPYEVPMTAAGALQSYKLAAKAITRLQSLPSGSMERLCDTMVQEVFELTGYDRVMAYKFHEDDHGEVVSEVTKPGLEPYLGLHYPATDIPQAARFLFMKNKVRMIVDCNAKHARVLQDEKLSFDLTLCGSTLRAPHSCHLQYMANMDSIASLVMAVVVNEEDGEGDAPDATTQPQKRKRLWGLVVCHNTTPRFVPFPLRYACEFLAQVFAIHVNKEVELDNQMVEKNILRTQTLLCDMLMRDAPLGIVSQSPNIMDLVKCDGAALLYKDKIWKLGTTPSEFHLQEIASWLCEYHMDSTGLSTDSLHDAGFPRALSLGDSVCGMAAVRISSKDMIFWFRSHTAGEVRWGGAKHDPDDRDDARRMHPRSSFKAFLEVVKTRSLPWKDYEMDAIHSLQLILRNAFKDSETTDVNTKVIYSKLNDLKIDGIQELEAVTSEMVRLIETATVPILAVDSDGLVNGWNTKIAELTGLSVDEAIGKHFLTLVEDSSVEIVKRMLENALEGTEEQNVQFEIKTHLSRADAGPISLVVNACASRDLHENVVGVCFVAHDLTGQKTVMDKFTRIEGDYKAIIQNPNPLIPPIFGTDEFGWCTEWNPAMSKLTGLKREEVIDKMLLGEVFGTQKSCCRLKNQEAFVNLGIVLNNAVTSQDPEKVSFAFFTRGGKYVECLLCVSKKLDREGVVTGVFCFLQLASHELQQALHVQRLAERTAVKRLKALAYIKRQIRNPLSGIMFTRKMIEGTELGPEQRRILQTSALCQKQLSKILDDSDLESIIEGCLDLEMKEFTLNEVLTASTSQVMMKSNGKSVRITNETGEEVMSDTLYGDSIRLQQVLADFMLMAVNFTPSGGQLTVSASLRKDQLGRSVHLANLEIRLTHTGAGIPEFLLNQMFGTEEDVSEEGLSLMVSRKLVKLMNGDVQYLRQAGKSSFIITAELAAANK

[2] = target: T2, AGO1 (endogenous) (Arabidopsis thaliana (endogenous in seedlings)) (UniProt O04379); assay: co-IP; 4-day-old dark-grown Arabidopsis seedlings; total soluble protein, αAGO1 bound to protein A-coated magnetic beads, blots with αAGO1 and αGFP
T2 sequence: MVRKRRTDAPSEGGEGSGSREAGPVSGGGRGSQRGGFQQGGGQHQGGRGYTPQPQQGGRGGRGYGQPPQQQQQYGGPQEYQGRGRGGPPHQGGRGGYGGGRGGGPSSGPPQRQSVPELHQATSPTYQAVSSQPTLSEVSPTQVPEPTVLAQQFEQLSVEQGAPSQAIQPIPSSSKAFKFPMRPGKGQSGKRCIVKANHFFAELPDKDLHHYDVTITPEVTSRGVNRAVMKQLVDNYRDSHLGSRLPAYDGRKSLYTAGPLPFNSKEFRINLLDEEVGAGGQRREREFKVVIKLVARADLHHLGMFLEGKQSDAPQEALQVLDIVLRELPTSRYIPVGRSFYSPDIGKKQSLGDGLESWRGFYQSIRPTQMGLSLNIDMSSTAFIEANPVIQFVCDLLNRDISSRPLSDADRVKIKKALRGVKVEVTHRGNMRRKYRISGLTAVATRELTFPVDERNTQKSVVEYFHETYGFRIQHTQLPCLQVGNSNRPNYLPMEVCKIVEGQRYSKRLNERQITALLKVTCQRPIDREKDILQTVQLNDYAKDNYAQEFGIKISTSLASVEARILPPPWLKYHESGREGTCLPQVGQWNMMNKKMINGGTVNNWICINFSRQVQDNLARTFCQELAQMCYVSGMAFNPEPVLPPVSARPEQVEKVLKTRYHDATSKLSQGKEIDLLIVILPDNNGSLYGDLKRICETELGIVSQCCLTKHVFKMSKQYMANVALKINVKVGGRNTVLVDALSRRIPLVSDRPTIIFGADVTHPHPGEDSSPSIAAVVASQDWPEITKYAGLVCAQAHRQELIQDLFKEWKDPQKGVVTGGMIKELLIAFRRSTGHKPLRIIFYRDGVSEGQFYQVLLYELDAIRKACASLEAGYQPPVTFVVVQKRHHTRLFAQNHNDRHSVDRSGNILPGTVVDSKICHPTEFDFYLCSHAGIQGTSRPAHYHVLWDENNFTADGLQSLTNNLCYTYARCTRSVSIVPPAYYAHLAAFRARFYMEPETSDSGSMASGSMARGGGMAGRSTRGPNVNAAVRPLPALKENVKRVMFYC

[3] = target: HA-YFP-NOT9B (tobacco) (Arabidopsis thaliana); assay: co-IP; transiently transformed tobacco (N. benthamiana) leaves, kept in the dark, 5 min white light; total soluble protein, αGFP magnetic beads, IP buffer pH 7.8 with 450 mM NaCl, 4°C
[4] = target: HA-YFP-NOT9B ΔGWB (tobacco) (Arabidopsis thaliana); assay: as above
[5] = target: HA-YFP-NOT9B (leek cells) (Arabidopsis thaliana); assay: FRET or BRET; FRET-FLIM in bombarded leek epidermal cells, YFP fluorescence lifetime, YFP-tagRFP pair

With “FLAG-myc-mCherry-NOT9B (Arabidopsis thaliana)” as the molecule, how does the binding [1] read?
Its binding is “binds”.

How did the binding [2] turn out when NLS-YFP-NOT9B (Arabidopsis) was run?
The binding was “binds”.

B1: phyA-NLS-3×HA (protein, UniProt P14712 1-1122)
chain: MSGSRPTQSSEGSRRSRHSARIIAQTTVDAKLHADFEESGSSFDYSTSVRVTGPVVENQPPRSDKVTTTYLHHIQKGKLIQPFGCLLALDEKTFKVIAYSENASELLTMASHAVPSVGEHPVLGIGTDIRSLFTAPSASALQKALGFGDVSLLNPILVHCRTSAKPFYAIIHRVTGSIIIDFEPVKPYEVPMTAAGALQSYKLAAKAITRLQSLPSGSMERLCDTMVQEVFELTGYDRVMAYKFHEDDHGEVVSEVTKPGLEPYLGLHYPATDIPQAARFLFMKNKVRMIVDCNAKHARVLQDEKLSFDLTLCGSTLRAPHSCHLQYMANMDSIASLVMAVVVNEEDGEGDAPDATTQPQKRKRLWGLVVCHNTTPRFVPFPLRYACEFLAQVFAIHVNKEVELDNQMVEKNILRTQTLLCDMLMRDAPLGIVSQSPNIMDLVKCDGAALLYKDKIWKLGTTPSEFHLQEIASWLCEYHMDSTGLSTDSLHDAGFPRALSLGDSVCGMAAVRISSKDMIFWFRSHTAGEVRWGGAKHDPDDRDDARRMHPRSSFKAFLEVVKTRSLPWKDYEMDAIHSLQLILRNAFKDSETTDVNTKVIYSKLNDLKIDGIQELEAVTSEMVRLIETATVPILAVDSDGLVNGWNTKIAELTGLSVDEAIGKHFLTLVEDSSVEIVKRMLENALEGTEEQNVQFEIKTHLSRADAGPISLVVNACASRDLHENVVGVCFVAHDLTGQKTVMDKFTRIEGDYKAIIQNPNPLIPPIFGTDEFGWCTEWNPAMSKLTGLKREEVIDKMLLGEVFGTQKSCCRLKNQEAFVNLGIVLNNAVTSQDPEKVSFAFFTRGGKYVECLLCVSKKLDREGVVTGVFCFLQLASHELQQALHVQRLAERTAVKRLKALAYIKRQIRNPLSGIMFTRKMIEGTELGPEQRRILQTSALCQKQLSKILDDSDLESIIEGCLDLEMKEFTLNEVLTASTSQVMMKSNGKSVRITNETGEEVMSDTLYGDSIRLQQVLADFMLMAVNFTPSGGQLTVSASLRKDQLGRSVHLANLEIRLTHTGAGIPEFLLNQMFGTEEDVSEEGLSLMVSRKLVKLMNGDVQYLRQAGKSSFIITAELAAANK
What does the source list for B1?
binding [3]: binds; binding [4]: binds

B2: phyA-NLS-tagRFP (protein, UniProt P14712 1-1122)
chain: MSGSRPTQSSEGSRRSRHSARIIAQTTVDAKLHADFEESGSSFDYSTSVRVTGPVVENQPPRSDKVTTTYLHHIQKGKLIQPFGCLLALDEKTFKVIAYSENASELLTMASHAVPSVGEHPVLGIGTDIRSLFTAPSASALQKALGFGDVSLLNPILVHCRTSAKPFYAIIHRVTGSIIIDFEPVKPYEVPMTAAGALQSYKLAAKAITRLQSLPSGSMERLCDTMVQEVFELTGYDRVMAYKFHEDDHGEVVSEVTKPGLEPYLGLHYPATDIPQAARFLFMKNKVRMIVDCNAKHARVLQDEKLSFDLTLCGSTLRAPHSCHLQYMANMDSIASLVMAVVVNEEDGEGDAPDATTQPQKRKRLWGLVVCHNTTPRFVPFPLRYACEFLAQVFAIHVNKEVELDNQMVEKNILRTQTLLCDMLMRDAPLGIVSQSPNIMDLVKCDGAALLYKDKIWKLGTTPSEFHLQEIASWLCEYHMDSTGLSTDSLHDAGFPRALSLGDSVCGMAAVRISSKDMIFWFRSHTAGEVRWGGAKHDPDDRDDARRMHPRSSFKAFLEVVKTRSLPWKDYEMDAIHSLQLILRNAFKDSETTDVNTKVIYSKLNDLKIDGIQELEAVTSEMVRLIETATVPILAVDSDGLVNGWNTKIAELTGLSVDEAIGKHFLTLVEDSSVEIVKRMLENALEGTEEQNVQFEIKTHLSRADAGPISLVVNACASRDLHENVVGVCFVAHDLTGQKTVMDKFTRIEGDYKAIIQNPNPLIPPIFGTDEFGWCTEWNPAMSKLTGLKREEVIDKMLLGEVFGTQKSCCRLKNQEAFVNLGIVLNNAVTSQDPEKVSFAFFTRGGKYVECLLCVSKKLDREGVVTGVFCFLQLASHELQQALHVQRLAERTAVKRLKALAYIKRQIRNPLSGIMFTRKMIEGTELGPEQRRILQTSALCQKQLSKILDDSDLESIIEGCLDLEMKEFTLNEVLTASTSQVMMKSNGKSVRITNETGEEVMSDTLYGDSIRLQQVLADFMLMAVNFTPSGGQLTVSASLRKDQLGRSVHLANLEIRLTHTGAGIPEFLLNQMFGTEEDVSEEGLSLMVSRKLVKLMNGDVQYLRQAGKSSFIITAELAAANK
How did the binding [5] turn out when B2 was run?
Its binding is “binds”.
